In this test the target is recombinant FGF-1 (purified) (UniProt P05230). In words: Cu2+ oxidation, non-reduced SDS-PAGE.

By UniProt entry, the sequences of proteins in these tests, tags left out. Residues count along the entry.
UniProt P05230, residues 22-155: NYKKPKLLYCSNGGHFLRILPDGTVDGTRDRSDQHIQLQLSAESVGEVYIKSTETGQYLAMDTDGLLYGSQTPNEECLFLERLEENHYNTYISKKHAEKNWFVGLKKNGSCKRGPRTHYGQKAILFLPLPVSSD

No constants are given. Whether binding was seen depends on the method and setting. Some results given as binding are weak or reduced against the parent protein; the word gives no strength.

Turning to “recombinant FGF-1 (purified) (from UniProt P05230 22-155) (ligand)”, the binding entry is reported as “binds”.
